{"sequences": {"note": "The chains behind the UniProt entries cited, without tags or fusion partners. Where a name states a change or a piece, a line headed by the entry shows the natural chain unless it says otherwise.", "UniProt P46531": "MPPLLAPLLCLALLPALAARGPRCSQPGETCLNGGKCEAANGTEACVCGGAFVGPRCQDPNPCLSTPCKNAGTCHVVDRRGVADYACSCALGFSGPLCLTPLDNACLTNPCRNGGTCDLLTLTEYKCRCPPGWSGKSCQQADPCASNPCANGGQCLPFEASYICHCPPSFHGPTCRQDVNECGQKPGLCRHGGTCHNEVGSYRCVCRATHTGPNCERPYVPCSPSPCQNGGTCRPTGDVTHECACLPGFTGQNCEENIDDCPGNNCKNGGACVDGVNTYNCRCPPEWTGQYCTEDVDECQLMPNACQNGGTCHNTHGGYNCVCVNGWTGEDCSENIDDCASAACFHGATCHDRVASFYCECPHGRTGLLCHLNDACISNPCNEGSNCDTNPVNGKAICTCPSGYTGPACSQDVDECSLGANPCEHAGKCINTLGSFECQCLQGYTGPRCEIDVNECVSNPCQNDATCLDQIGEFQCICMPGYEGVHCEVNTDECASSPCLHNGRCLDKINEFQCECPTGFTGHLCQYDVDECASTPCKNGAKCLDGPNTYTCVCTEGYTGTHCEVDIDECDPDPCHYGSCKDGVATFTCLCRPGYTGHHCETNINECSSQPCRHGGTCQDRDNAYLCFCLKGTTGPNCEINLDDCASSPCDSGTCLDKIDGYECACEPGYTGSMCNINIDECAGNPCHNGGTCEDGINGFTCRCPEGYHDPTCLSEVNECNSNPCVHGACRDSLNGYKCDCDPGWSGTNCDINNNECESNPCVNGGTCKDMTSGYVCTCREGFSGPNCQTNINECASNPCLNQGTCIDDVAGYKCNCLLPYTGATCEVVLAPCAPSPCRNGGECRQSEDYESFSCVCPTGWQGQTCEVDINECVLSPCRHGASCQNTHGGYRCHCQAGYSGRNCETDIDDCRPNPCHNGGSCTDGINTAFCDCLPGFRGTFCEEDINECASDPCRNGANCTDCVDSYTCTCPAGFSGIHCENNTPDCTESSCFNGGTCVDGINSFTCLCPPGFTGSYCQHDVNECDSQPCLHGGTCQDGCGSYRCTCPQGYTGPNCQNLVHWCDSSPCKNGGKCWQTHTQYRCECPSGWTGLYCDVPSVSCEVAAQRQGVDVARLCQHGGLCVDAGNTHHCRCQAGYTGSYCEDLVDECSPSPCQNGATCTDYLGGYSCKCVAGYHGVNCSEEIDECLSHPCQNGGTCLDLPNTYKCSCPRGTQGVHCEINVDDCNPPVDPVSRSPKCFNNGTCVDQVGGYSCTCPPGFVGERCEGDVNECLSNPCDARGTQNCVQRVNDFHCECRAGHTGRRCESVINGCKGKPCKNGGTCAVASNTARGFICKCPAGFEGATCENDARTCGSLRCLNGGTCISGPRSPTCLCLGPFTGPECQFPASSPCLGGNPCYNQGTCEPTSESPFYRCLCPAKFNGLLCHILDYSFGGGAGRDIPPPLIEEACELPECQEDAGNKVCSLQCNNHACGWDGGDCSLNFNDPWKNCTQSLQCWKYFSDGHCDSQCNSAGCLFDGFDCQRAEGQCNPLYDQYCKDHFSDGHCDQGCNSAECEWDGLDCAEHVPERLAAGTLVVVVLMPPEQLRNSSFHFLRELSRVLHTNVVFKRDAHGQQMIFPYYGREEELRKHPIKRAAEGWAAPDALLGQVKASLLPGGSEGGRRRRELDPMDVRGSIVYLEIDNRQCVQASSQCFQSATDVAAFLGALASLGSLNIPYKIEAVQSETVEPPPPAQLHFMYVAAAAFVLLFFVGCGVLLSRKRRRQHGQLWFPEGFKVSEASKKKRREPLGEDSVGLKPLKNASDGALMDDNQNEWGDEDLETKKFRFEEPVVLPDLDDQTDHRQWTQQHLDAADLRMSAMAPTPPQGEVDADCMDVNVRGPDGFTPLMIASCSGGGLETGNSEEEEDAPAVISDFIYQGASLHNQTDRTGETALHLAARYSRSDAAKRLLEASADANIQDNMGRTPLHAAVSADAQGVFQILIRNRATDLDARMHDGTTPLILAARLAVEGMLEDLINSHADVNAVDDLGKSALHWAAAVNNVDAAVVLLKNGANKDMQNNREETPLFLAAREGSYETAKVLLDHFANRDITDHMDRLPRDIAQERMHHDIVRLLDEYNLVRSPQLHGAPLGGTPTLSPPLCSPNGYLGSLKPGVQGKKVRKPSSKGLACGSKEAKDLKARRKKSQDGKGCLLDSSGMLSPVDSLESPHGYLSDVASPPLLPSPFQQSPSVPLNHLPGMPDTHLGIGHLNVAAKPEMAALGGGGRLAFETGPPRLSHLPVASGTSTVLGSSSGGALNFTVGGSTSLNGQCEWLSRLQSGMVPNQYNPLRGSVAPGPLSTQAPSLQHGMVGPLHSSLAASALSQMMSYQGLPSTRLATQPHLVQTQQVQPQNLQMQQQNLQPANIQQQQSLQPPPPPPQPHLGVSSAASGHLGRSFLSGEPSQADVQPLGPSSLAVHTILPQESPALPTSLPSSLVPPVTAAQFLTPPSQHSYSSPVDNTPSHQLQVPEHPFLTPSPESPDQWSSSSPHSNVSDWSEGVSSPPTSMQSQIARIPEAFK", "UniProt Q9UM47": "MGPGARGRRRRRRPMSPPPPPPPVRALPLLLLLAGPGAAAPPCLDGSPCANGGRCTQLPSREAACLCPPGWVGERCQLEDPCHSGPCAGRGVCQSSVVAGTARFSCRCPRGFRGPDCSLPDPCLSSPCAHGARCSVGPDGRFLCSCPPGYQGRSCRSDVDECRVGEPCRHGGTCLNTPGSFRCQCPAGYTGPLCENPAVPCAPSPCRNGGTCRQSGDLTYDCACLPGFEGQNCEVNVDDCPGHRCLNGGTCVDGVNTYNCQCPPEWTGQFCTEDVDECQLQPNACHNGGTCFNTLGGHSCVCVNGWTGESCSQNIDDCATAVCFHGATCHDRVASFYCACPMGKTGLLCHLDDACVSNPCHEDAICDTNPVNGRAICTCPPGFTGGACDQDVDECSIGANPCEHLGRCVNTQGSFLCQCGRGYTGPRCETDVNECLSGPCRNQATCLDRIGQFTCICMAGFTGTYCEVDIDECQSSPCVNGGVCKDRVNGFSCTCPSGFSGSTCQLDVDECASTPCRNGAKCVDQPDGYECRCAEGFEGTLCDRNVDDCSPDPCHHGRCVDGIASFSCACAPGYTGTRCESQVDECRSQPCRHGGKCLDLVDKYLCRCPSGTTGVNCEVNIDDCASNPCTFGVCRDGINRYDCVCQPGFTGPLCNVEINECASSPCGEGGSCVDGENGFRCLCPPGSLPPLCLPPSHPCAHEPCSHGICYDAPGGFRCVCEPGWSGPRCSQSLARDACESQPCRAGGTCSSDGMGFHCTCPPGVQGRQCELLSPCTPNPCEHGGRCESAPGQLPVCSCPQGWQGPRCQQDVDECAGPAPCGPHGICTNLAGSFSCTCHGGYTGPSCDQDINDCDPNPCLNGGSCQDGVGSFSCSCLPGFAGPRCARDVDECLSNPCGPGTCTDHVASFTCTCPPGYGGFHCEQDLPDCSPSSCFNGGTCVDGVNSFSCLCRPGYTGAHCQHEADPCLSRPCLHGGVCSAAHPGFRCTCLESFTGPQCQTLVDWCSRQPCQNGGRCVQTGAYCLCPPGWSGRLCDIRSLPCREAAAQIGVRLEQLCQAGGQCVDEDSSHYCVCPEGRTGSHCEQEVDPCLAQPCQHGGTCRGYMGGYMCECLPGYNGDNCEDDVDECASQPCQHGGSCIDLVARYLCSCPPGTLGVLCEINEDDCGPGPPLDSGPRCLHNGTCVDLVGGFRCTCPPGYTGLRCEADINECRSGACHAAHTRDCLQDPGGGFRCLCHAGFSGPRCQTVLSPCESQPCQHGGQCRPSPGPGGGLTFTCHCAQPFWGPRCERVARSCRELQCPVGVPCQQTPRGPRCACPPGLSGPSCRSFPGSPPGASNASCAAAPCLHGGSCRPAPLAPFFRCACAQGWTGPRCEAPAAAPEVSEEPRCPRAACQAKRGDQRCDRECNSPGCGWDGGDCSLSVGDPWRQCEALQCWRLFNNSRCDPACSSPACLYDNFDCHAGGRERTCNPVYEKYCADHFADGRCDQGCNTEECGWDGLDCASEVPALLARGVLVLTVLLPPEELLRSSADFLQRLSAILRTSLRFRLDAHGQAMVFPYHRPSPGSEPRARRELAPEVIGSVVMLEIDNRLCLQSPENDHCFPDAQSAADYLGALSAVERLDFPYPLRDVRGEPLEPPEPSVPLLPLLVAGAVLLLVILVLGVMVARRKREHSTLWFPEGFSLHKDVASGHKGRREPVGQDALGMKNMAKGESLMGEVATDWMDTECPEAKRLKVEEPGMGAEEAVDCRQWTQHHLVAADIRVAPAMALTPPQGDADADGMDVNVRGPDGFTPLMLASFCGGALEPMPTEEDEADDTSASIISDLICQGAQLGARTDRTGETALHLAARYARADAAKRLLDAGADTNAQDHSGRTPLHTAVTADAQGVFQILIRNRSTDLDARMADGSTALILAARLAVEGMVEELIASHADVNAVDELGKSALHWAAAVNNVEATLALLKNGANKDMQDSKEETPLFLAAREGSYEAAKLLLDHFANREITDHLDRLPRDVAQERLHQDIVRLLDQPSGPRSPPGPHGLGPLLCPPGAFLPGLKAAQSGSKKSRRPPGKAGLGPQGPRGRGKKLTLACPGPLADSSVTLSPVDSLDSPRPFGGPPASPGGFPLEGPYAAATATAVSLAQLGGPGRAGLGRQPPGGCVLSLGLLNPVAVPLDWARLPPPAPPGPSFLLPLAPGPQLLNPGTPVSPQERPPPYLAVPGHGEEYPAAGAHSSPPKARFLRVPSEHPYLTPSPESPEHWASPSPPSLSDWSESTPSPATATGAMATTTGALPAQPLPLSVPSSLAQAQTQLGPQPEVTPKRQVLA"}, "source": "paper PMC11071257", "binders": {"B1": {"name": "NRN1-GFP (Neuritin-1 with GFP tag) (protein, UniProt Q9NPD7 28-116)", "chain": "AGKCDAVFKGFSDCLLKLGDSMANYPQGLDDKTNIKTVCTYWEDFHSCTVTALTDCQEGAKDMWDKLRKESKNLNIQGSLFELCGSGNG"}}, "key": {"[1]": {"molecular_target": "Notch1 intracellular domain tagged with V5 (N1ICD-V5) (UniProt P46531)", "test": "co-IP; RIPA lysates of Mel JuSo NRN1-GFP cells transfected with pcDNA (control) or N1ICD-V5, harvested after 48 h, precleared with Protein G-Sepharose; precipitated with rabbit IgG (isotype control), V5 or Notch3 antibody, 4 °C overnight; Western blot probed with GFP, V5 and Notch3 antibodies"}, "[2]": {"molecular_target": "Notch3 intracellular domain (N3ICD), endogenous (human (endogenous in Mel JuSo)) (UniProt Q9UM47)", "test": "co-IP; RIPA lysates of Mel JuSo NRN1-GFP cells transfected with pcDNA (control) or N1ICD-V5, harvested after 48 h, precleared with Protein G-Sepharose; precipitated with rabbit IgG (isotype control), V5 or Notch3 antibody, 4 °C overnight; Western blot probed with GFP, V5 and Notch3 antibodies"}}, "note": "Results are given in words; binding and its absence hold for the method and conditions named. Binding seen in cells or lysates may run through a third protein. Binding calls can cover weak binding; strength is not graded here. Tags and fused reporters may be left off the sequences shown."}
{"binder": "B1", "values": [{"measurement": "binding", "setting": "[1]", "result": "binds"}, {"measurement": "binding", "setting": "[2]", "result": "binds"}]}
